Experimental data from PubChem BioAssay AID1347426 (Functional Genomics Laboratory (NCATS/FGL), 2020).
About 1,400 (4.5%) of roughly 31,000 sequences were called active.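 Rule for the calls: active = median seed-adjusted z-score above 1 or below -1; inactive = the rest.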 The list shows a part of the results.

Test: Novel Modifiers of Survival Motor Neuron (SMN) Protein: Gene Identification via Genome-wide siRNA Screen;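 note: luminescence tracks full-length SMN protein made from the SMN2 reporter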
Settings: HEK293T SMN2-luciferase reporter, siRNA knockdown, 72 h; actives lie on both sides
Outline: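 Steps: spot 1 pmol siRNA, add Lipofectamine RNAiMax in serum-free DMEM, seed HEK293T SMN2–luciferase reporter cells; incubate 72 h at 37 °C; add ONE-Glo; normalize luminescence to control siRNA, log10, MAD. Candidates: |MAD| > 1.0.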
With GCAUCAACAAUAUCCGGGATT against FARSA the median seed-adjusted z-score was inactive: -0.158.
With CAUCGGCAAUGGGAUUAUUTT against USP36 the median seed-adjusted z-score was inactive: -0.147.
For CAUCUGUGGUUGUACCAGATT against EXT2, the median seed-adjusted z-score was inactive: -0.127.
For CAACAGCUCUAGGACUCAATT against SFXN1, the median seed-adjusted z-score was inactive: -0.746.
In the case of ACAAAUCACUGGUGAACAATT against RHOD, the median seed-adjusted z-score is reported as inactive: 0.
With CAUUACUCCUCAACAGGUATT against MPP6 the median seed-adjusted z-score was inactive: -0.625.
For CUCUCUUCCGAAUUUGUAATT against ZNF347, the median seed-adjusted z-score was inactive: 0.
With GGUCAUUUUCGUGGAGAAATT against NFATC1 the median seed-adjusted z-score was inactive: 0.00712.
For AGAACACGGUGGAUAAACUTT against SLC8A2, the median seed-adjusted z-score was inactive: 0.
For CGACUAGUGUCAGAAAUCUTT against RUFY1, the median seed-adjusted z-score was inactive: 0.119.
With CAGCUGCGUUAAUCCGUUUTT against AGTR2 the median seed-adjusted z-score was inactive: 0.204.
In the case of AGAGGUACCUGGAUUUCGATT against CYP46A1, the median seed-adjusted z-score is reported as inactive: -0.00752.
In the case of CAUUCAAGUUUAAGCUCCATT against ERF, the median seed-adjusted z-score is reported as inactive: -0.0288.
In the case of GACCAUUCGCGAUUUAGAATT against MYLK, the median seed-adjusted z-score is reported as inactive: 0.0226.
In the case of GAUCCACAGAGGAAAGGAATT against CYTH1, the median seed-adjusted z-score is reported as inactive: 0.348.
For GAUAUAUCCUGUCAAGAAATT against GTDC1, the median seed-adjusted z-score was inactive: 0.2.
For AAGGAAACCAGGUCCAUCATT against PHKG2, the median seed-adjusted z-score was inactive: -0.371.
In the case of GGAUCAAGCUCACAAGGGATT against WDR36, the median seed-adjusted z-score is reported as inactive: 0.00836.
For GGAUUUUUGAUGUUCGGUUTT against AOC2, the median seed-adjusted z-score was inactive: 0.
For CCAUCUAGCUUAUCGAUAUTT against DYRK3, the median seed-adjusted z-score was inactive: 0.358.
With AAAUCAGUUUAACACCUUATT against ANK1 the median seed-adjusted z-score was inactive: -0.282.
For GGUGAAUCAUUUGAACUGATT against RCL1, the median seed-adjusted z-score was inactive: 0.0807.
With GGACCAAACAACUCGAGUATT against MED12L the median seed-adjusted z-score was inactive: -0.0903.
With CCAUCUUGCAAACCUAUAUTT against PDE7B the median seed-adjusted z-score was inactive: 0.0616.
In the case of GCAACAUGCAGAUAGGUUATT against PHF14, the median seed-adjusted z-score is reported as inactive: 0.354.
In the case of CCAGCUUCCUGUAAGAGCATT against LRIG1, the median seed-adjusted z-score is reported as inactive: 0.102.
With AGAUAGAAGGGACACCAUUTT against NDUFB3 the median seed-adjusted z-score was inactive: -0.00982.
For CCACGAACAAUAAUCCCAATT against KCNA3, the median seed-adjusted z-score was inactive: 0.213.
In the case of GCCUGAACCGAGUAGAAGATT against KCNQ1, the median seed-adjusted z-score is reported as inactive: -0.0525.
In the case of CCCAGGAAGUUCUACUACATT against HS6ST1, the median seed-adjusted z-score is reported as inactive: -0.436.
In the case of CCACUGAAUAUGUGCAGAATT against FBP2, the median seed-adjusted z-score is reported as inactive: 0.
In the case of GCAUCCGGAUUCUUGAUGATT against PGK2, the median seed-adjusted z-score is reported as inactive: -0.127.
In the case of CAAGGUUGAUGGGCGUGUATT against HNRNPA3, the median seed-adjusted z-score is reported as inactive: 0.915.
For GACCUCAACCAGAACGUAATT against ATP6V0A2, the median seed-adjusted z-score was inactive: 0.236.
With GCCUUAUUCGGAGUACUAUTT against MS4A7 the median seed-adjusted z-score was inactive: 0.0794.
In the case of GAAACACGGGAGUACUAGATT against GPR98, the median seed-adjusted z-score is reported as inactive: -0.509.
With GGAUGAGAAUAUGACUCGATT against MSH5 the median seed-adjusted z-score was inactive: -0.444.
With GCUCUACAUUGACAGUUGUTT against SEC22B the median seed-adjusted z-score was inactive: -0.106.
With GCAAGGUGUUUCCCAUUAATT against TRIB1 the median seed-adjusted z-score was inactive: 0.
In the case of CAAUCUCCUUAGAAAGCAATT against DOT1L, the median seed-adjusted z-score is reported as inactive: 0.164.
With CCUGCUUGCUGAUUGCGUATT against SLC43A2 the median seed-adjusted z-score was inactive: -0.202.
With GGUUAUAUCUCAUCUUUGATT against CDC2 the median seed-adjusted z-score was inactive: 0.424.
In the case of AUCCAUUGAUAAUAAAGCATT against PABPC1, the median seed-adjusted z-score is reported as inactive: -0.126.
For CACCCACUAUUGUUCAAGATT against HCRTR1, the median seed-adjusted z-score was inactive: 0.739.
For GUAACCAGCUGAAAACGCATT against MYNN, the median seed-adjusted z-score was inactive: 0.0702.
For GCCGAUGACUUGGUACUGATT against ELF3, the median seed-adjusted z-score was inactive: 0.43.
For GGAAGUCCAGUAUGCCUAUTT against BNC1, the median seed-adjusted z-score was inactive: -0.631.
With GACUUACCGUUACCACGGATT against PDHA1 the median seed-adjusted z-score was inactive: 0.346.
With CAAAGGAGGUCAUAAUACATT against ZNF107 the median seed-adjusted z-score was inactive: 0.0761.
In the case of GGAACGAAAUUUAAGUUUUTT against PTPN12, the median seed-adjusted z-score is reported as inactive: -0.507.
For GGACAUAUACUUGCGGGUATT against IARS, the median seed-adjusted z-score was inactive: -0.198.
In the case of GGAAUACCUUAUUGAUGUATT against CST8, the median seed-adjusted z-score is reported as inactive: -0.0126.
With GCAUCAUCAAGGCAAUUUATT against CPA1 the median seed-adjusted z-score was inactive: -0.187.
For CAGUUUACCUGUUUUUAAATT against PTBP1, the median seed-adjusted z-score was inactive: 0.578.
In the case of UGACCAUGGUAGCACUUUUTT against NXF2, the median seed-adjusted z-score is reported as inactive: -0.0513.
For GGAACACUGUUACUAUAAATT against ADAMDEC1, the median seed-adjusted z-score was inactive: 0.0106.
With GCAAGAAGAGAUUAGCAAATT against EIF2C2 the median seed-adjusted z-score was inactive: -0.183.
With CAAGGUAGCUCAGCACUGATT against PEX6 the median seed-adjusted z-score was inactive: -0.281.
For CCCACUAUGCAAAAUGUAATT against PCMT1, the median seed-adjusted z-score was inactive: 0.139.
For GUAUGUUCAUGAACAUUAUTT against C1GALT1, the median seed-adjusted z-score was inactive: -0.394.
With GCAGUGUACCCGUCAUUAUTT against SEMA4B the median seed-adjusted z-score was inactive: 0.185.
For GUACUCCUGCUUUACCUAATT against IL13RA1, the median seed-adjusted z-score was inactive: 0.269.
In the case of CAAAUCCAGUGGUGGGUAATT against S100A6, the median seed-adjusted z-score is reported as inactive: -0.264.
In the case of CAAGGAUUACAUCACGGAATT against FUT9, the median seed-adjusted z-score is reported as inactive: 0.0444.
For GUGGUGGGCUUAUCCUCUATT against NRXN3, the median seed-adjusted z-score was inactive: 0.897.
In the case of GCACUCUUCUCAUUCACGATT against ATP1B3, the median seed-adjusted z-score is reported as inactive: -0.225.
With GCACAGUCCUCAGUACUCATT against AMIGO3 the median seed-adjusted z-score was inactive: 0.752.
In the case of GGAGUGUGCUGAAGACCUATT against GFER, the median seed-adjusted z-score is reported as inactive: 0.402.
